Data source: PubChem BioAssay AID1259405 (NCATS, 2018)

- Aim: 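Mouse-designed siRNAs used to find CHO productivity engineering targets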 (primary screen)
- System: Chinese hamster CHO-K1 ovary cells with stable secreted eGFP expression
- Reagents: single siRNA against mouse genes, 0.8 pmol siRNA per well (2 µl of 400 nM stock)
- Timing: 3 days
- Detection: 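Percent of the per-plate non-targeting control median for intracellular GFP per well by laser scanning cytometry and for cell viability by ATP luminescence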
- Reading the numbers: GFP, % of control: higher = more GFP per well, higher productivity; viability (ATP), % of control: higher = more viable cells (more ATP)
- Hit rule: 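a knock-down is called active if GFP reaches 120% or more of non-targeting control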
In all, the deposit lists about 50,000 reagents; shown is a part drawn at random. About 4,000 of all reagents (8%) count as active. 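Mouse siRNA library applied to hamster cells; one well for each siRNA.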 The numbers tell different reagents against one gene apart.

The opening 3 entries as a preview:
gene symbol	reagent no.	GFP, % of control	viability (ATP), % of control	outcome
Tmt1b	1	96.8	105	inactive
Tmt1b	2	140	85	active
Tmt1b	3	53.7	80.7	inactive

Main list, repeating the preview:
gene symbol	reagent no.	GFP, % of control	viability (ATP), % of control	outcome
Tmt1b	1	96.8	105	inactive
Tmt1b	2	140	85	active
Tmt1b	3	53.7	80.7	inactive
Fbxo28	1	60.5	74.8	inactive
Fbxo28	2	40.4	83.5	inactive
Fbxo28	3	51.6	31.4	inactive
Adam1a	1	72.5	111	inactive
Adam1a	2	65.7	80.1	inactive
Adam1a	3	68.5	100	inactive
Tlnrd1	1	103	65.5	inactive
Tlnrd1	2	62.3	71.5	inactive
Tlnrd1	3	126	103	active
Cuedc1	1	90.7	108	inactive
Cuedc1	2	115	78.5	inactive
Cuedc1	3	97.1	112	inactive
Ensa	1	80.3	92.7	inactive
Ensa	2	68.9	51.4	inactive
Ensa	3	70.5	72.5	inactive
Sp6	1	82.9	75.4	inactive
Sp6	2	67.8	111	inactive
Sp6	3	96.4	116	inactive
Jkamp	1	77.5	72.2	inactive
Jkamp	2	89.7	93.6	inactive
Jkamp	3	88.2	58.4	inactive
Syt8	1	101	54.9	inactive
Syt8	2	160	83.7	active
Syt8	3	110	54.8	inactive
Srsf3	1	147	90.2	active
Srsf3	2	112	111	inactive
Tradd	1	66.2	62.8	inactive
Tradd	2	40	106	inactive
Tradd	3	106	105	inactive
Rbm12b1	1	80	62.8	inactive
Rbm12b1	2	95	81.5	inactive
Rbm12b1	3	57.6	46.1	inactive
Tmed11	1	45.7	70.3	inactive
Tmed11	2	77.4	89.4	inactive
Tmed11	3	25.8	56	inactive
Tbxa2r	1	43.7	63.1	inactive
Tbxa2r	2	68.9	68.8	inactive
Tbxa2r	3	95.7	42.4	inactive
Ahrr	1	45.4	56.8	inactive
Ahrr	2	84	69.8	inactive
Col25a1	1	84.2	63.2	inactive
Col25a1	2	74.4	78.9	inactive
Col25a1	3	128	46.5	active
Rnf214	1	41.6	58	inactive
Rnf214	2	68.1	39.6	inactive
Rnf214	3	96	102	inactive
Apof	1	99.4	67.5	inactive
Apof	2	65.3	65.9	inactive
Cerk	1	42.1	53.3	inactive
Ftdc2	1	49.4	86.8	inactive
Ftdc2	2	59.4	84	inactive
Ftdc2	3	130	85.8	active
Birc2	1	74.2	77.3	inactive
Chst8	1	93.9	99.8	inactive
Chst8	2	83.2	114	inactive
Chst8	3	92.8	139	inactive
Setd5	1	60.4	82.3	inactive
Setd5	2	39.3	60.1	inactive
Setd5	3	49.4	52.2	inactive
Usf3	1	91.5	97.6	inactive
Usf3	2	64.6	65.1	inactive
Usf3	3	70.8	56.3	inactive
Nap1l3	1	158	62	active
Nap1l3	2	60.2	72.9	inactive
Nap1l3	3	53.4	45.4	inactive
Aqp4	1	106	79.5	inactive
Aqp4	2	94.8	102	inactive
Aqp4	3	113	91.3	inactive
Nlrp2	1	66.2	52.4	inactive
Nlrp2	2	54.8	79.1	inactive
Nlrp2	3	88.6	48	inactive
Mtag2	1	60	56.1	inactive
Mtag2	2	57.4	81.4	inactive
Mtag2	3	62.2	46.2	inactive
Hhat	1	62.9	66	inactive
Hhat	2	82.5	44.7	inactive
Hhat	3	73.3	65.4	inactive
Rpl31	1	48	60.7	inactive
Rpl31	2	49.1	35.4	inactive
Rpl31	3	38.1	19.2	inactive
Eif4ebp1	1	89.2	99.9	inactive
Eif4ebp1	2	94.2	88.1	inactive
Eif4ebp1	3	92	80.7	inactive
